In US5700779A (Cortech, Inc., priority 1996, dated 1997):

Assay: solid-phase peptide synthesis
Details: whole synthesis, scale 0.5 meq

Substance: D-Arg-Arg-Pro-Hyp-Gly-Thi-Ser-NPeg-Oic-Arg
- crude mass: 487 mg
